Several values for one entry are separate records, joined by “and”; a condition that tells them apart may be missing. Identical values can stand only once. The list shows a part of the results. Single values are uncertain here, since repeats match poorly.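 HEK293T cells were given each compound shortly before transfection with a reporter in which red mCherry is followed by the SARS-CoV-2 frameshift element and then GFP in the −1 frame, so GFP appears only after frameshifting.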
What follows are compounds tested on HEK293T (assay: percent viability (nuclei count) relative to control; higher = more viable cells). Settings: 10 µM; 24 h.

Row | Compound | percent viability
1 | COc1cc(C2Oc3cc([C@H]4Oc5cc(O)cc(O)c5C(=O)[C@@H]4O)ccc3OC2CO)ccc1O (stereo not given in full) [silibinin] | 67.3%
2 | O=P(O)(O)C(O)(Cn1ccnc1)P(=O)(O)O [Zoledronic acid] | 199%
3 | CC(=O)OCC(=O)[C@@]12N=C(C)O[C@@H]1C[C@H]1[C@@H]3CCC4=CC(=O)C=C[C@]4(C)[C@H]3[C@@H](O)C[C@@]12C [deflazacort] | 213%
4 | CN(CCOc1ccc(CC2SC(=O)NC2=O)cc1)c1ccccn1 (stereo not given) [Rosiglitazone] | 230%
5 | O=C([O-])[C@H](O)[C@@H](O)[C@H](O)[C@H](O)CO.O=C([O-])[C@H](O)[C@@H](O)[C@H](O)[C@H](O)CO.[Ca+2] | 197%
6 | Nc1ncnc2nc[nH]c12 [Leuco-4] | 70.7%
7 | C[C@H]1O[C@@H](O[C@H]2[C@@H](O)C[C@H](O[C@H]3[C@@H](O)C[C@H](O[C@H]4CC[C@@]5(C)[C@H](CC[C@@H]6[C@@H]5CC[C@]5(C)[C@@H](C7=CC(=O)OC7)CC[C@]65O)C4)O[C@@H]3C)O[C@@H]2C)C[C@H](O)[C@@H]1O [digitoxin] | 6.95%
8 | C#C[C@]1(OC(C)=O)CC[C@H]2[C@@H]3CCC4=C/C(=N/O)CC[C@@H]4[C@H]3CC[C@@]21CC | 220%
9 | O=C(CCCN1CCC(n2c(=S)[nH]c3ccccc32)CC1)c1ccc(F)cc1 [timiperone] | 379%
10 | CCCn1c(=O)c2nc(C34CC5CC(CC3C5)C4)[nH]c2n(CCC)c1=O [rolofylline] | 64.3%
11 | CCC(C)C(C)C1Nc2cc(Cl)c(S(N)(=O)=O)cc2S(=O)(=O)N1 (stereo not given) [mebutizide] | 216%
12 | NC(=O)c1csc([C@@H]2O[C@H](CO)[C@@H](O)[C@H]2O)n1 [tiazofurine] | 317%
13 | NC(=O)C(c1ccccc1)(c1ccccc1)[C@@H]1CCN(CCc2ccc3c(c2)CCO3)C1 | 182%
14 | CO/N=C1\C[C@]2(C[C@@H]3C[C@@H](C/C=C(\C)C[C@@H](C)/C=C/C=C4\CO[C@@H]5[C@H](O)C(C)=C[C@@H](C(=O)O3)[C@]45O)O2)O[C@H](/C(C)=C/C(C)C)[C@H]1C | 114%
15 | Cc1ccc(S(=O)(=O)NC(=O)NC2CCCCC2)cc1N [metahexamide] | 118%
16 | c1cc(CN2CCCNCCNCCCNCC2)ccc1CN1CCCNCCNCCCNCC1 [Mozobil] | 323% and 300%
17 | CC1(C)OC(=O)C(OCC2CC2)=C1c1ccc(S(C)(=O)=O)cc1 [firocoxib] | 118%
18 | O=c1[nH]cnc2c1ncn2[C@@H]1O[C@H](CO)[C@@H](O)[C@H]1O [inosine] | 115%
19 | Cc1cc(C)[n+](/N=C(\[O-])c2ccc(Cl)c(S(N)(=O)=O)c2)c(C)c1 [besulpamide] | 341%
20 | CC(O)CC(C)(C)O (stereo not given) | 160%

Row | Compound | percent viability
21 | CN1CCCC(n2nc(Cc3ccc(Cl)cc3)c3ccccc3c2=O)CC1 (stereo not given) [azelastine] | 283%
22 | Cc1cnc(C(=O)O)c[n+]1[O-] [acipimox] | 275% and 213%
23 | CN(C)CCOC(c1ccc(Cl)cc1)c1ccccn1 (stereo not given) [carbinoxamine] | 310%
24 | CC(=O)[C@H]1CC[C@H]2[C@@H]3CC=C4C[C@@H](O)CC[C@]4(C)[C@H]3CC[C@]12C [pregnenolone] | 348% and 229%
25 | C/C(=C(/CCOC(=O)c1ccccc1)SC(=O)c1ccccc1)N(C=O)Cc1cnc(C)nc1N [bentiamine] | 104%
26 | COc1cc(C(=O)N2CCOCC2)cc(OC)c1OC [trimetozine] | 246%
27 | CCN[C@@H]1C[C@H](N)[C@@H](O[C@H]2OC(CN)=CC[C@H]2N)[C@H](O)[C@H]1O[C@H]1OC[C@](C)(O)[C@H](NC)[C@H]1O [netilmicin] | 108%
28 | CN(C)CCn1nnnc1SCC1=C(C(=O)O)N2C(=O)[C@@H](NC(=O)Cc3csc(N)n3)[C@H]2SC1 [Pansporin] | 270%
29 | COc1cc2c(cc1OC)C(=O)C(CC1CCN(Cc3ccccc3)CC1)C2 (stereo not given) [donepezil] | 197%
30 | CC[C@H](C)[C@H](N)C1=N[C@H](C(=O)N[C@@H](CC(C)C)C(=O)N[C@H](CCC(=O)O)C(=O)N[C@H](C(=O)N[C@H]2CCCCNC(=O)[C@H](CC(N)=O)NC(=O)[C@@H](CC(=O)O)NC(=O)[C@H](Cc3cnc[nH]3)NC(=O)[C@@H](Cc3ccccc3)NC(=O)[C@H]([C@@H](C)CC)NC(=O)[C@@H](CCCN)NC2=O)[C@@H](C)CC)CS1 | 225%
31 | Cc1cccc(C)c1NC(=O)c1ccccc1C(=O)O [ftaxilide] | 30.2%
32 | C[N+](C)(CCOc1ccccc1)Cc1cccs1 [thenium closilate] | 63.5%
33 | CCCC(=O)OCOC(=O)C1=C(C)NC(C)=C(C(=O)OC)C1c1cccc(Cl)c1Cl (stereo not given) [clevidipine] | 205%
34 | COC1=CC(=O)C[C@@H](C)[C@]12Oc1c(Cl)c(OC)cc(OC)c1C2=O [griseofulvin] | 184%
35 | Cc1cccc(C)c1NC(=O)CN1CCN(CCCC(c2ccc(F)cc2)c2ccc(F)cc2)CC1 [lidoflazine] | 172%
36 | O=C(O)CCSCC(=O)O [danosteine] | 167%
37 | CN(C)CCC=C1c2ccccc2COc2ccccc21 | 158%
38 | Cc1nccnc1N1CCCCC1 | 145%
39 | C[C@H]1C[C@H]2[C@@H]3CCC4=CC(=O)C=C[C@]4(C)[C@@]3(Cl)[C@@H](O)C[C@]2(C)[C@@]1(O)C(=O)CO [beclometasone] | 121%
40 | c1cc(CNCc2ccncc2)ccn1 [gapicomine] | 119%

Source: the supplement of paper PMC8256030
